Where a chain is given by its changes, count along the chain named. No constants are given. Whether binding was seen depends on the method and setting. Some binding calls cover weakened binding; strength is not graded here. Blank lines part the entries; values can stand above or below the binder they belong to.
Assays:
[1] = target: soluble human FcRn (complex of FcRn and β2-microglobulin) (human) (UniProt P55899); assay: SPR (Biacore 3000), human FcRn as analyte, pH 6.0
[2] = target: recombinant human IL-6R sR (R&D systems) (human) (UniProt P08887); assay: SPR (Biacore T100), antibody captured on Protein A, rhIL-6sR as analyte, 25 C

Chains of the proteins cited; added tags and fusions are not shown. Lines headed by an entry give the natural chain unless they say otherwise; changes in a name come on top. Residues count along the entry.
UniProt P55899: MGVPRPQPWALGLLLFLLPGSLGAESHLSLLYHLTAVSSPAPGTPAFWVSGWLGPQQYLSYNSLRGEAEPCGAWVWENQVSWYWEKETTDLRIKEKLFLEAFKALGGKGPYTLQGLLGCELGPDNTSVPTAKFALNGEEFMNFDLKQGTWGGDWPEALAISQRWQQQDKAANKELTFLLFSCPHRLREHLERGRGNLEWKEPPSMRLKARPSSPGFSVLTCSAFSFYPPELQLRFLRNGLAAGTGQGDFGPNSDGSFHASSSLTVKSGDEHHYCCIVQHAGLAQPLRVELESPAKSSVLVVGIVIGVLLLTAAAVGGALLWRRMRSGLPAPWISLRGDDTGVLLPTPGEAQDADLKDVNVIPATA
UniProt P08887, residues 20-358: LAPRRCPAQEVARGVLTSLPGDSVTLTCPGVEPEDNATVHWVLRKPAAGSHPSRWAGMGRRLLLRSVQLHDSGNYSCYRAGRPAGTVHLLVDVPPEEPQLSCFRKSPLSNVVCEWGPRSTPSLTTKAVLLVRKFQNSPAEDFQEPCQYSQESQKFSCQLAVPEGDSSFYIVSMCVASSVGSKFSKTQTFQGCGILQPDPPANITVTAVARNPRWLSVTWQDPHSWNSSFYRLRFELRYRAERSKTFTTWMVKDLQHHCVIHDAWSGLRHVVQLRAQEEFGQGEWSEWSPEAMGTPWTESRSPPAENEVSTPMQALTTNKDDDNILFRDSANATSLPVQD

B1: anti-IL-31 receptor antibody H0L0 with M58 constant region (antibody)
heavy: QVQLVQSGAEVKKPGASVKVSCKASGYTFTGYIMNWVRQAPGQGLEWMGLINPYNGGTSYNQKFKGRVTITADESTSTAYMELSSLRSEDTAVYYCARDGYDDGPYTMDYWGQGTLVTVSASTKGPSVFPLAPSSKSTSGGTAALGCLVKDYFPEPVTVSWNSGALTSGVHTFPAVLQSSGLYSLSSVVTVPSSNFGTQTYTCNVDHKPSNTKVDKTVERKSCVECPPCPAPPVAGPSVFLFPPKPKDTLMISRTPEVTCVVVDVSQEDPEVQFNWYVDGVEVHNAKTKPREEQFNSTFRVVSVLTVVHQDWLNGKEYKCKVSNKGLPAPIEKTISKTKGQPREPQVYTLPPSQEEMTKNQVSLTCLVKGFYPSDIAVEWESNGQPENNYKTTPPMLDSDGSFFLYSKLTVDKSRWQEGNVFSCSVMHEALHNHYTQKSLSLSP
VL: DIQMTQSPSSLSASVGDRVTITCRTSENIYSFLAWYQQKPGKAPKLLIYNAKTLAKGVPSRFSGSGSGTDFTLTISSLQPEDFATYYCQHHYESPLTFGGGTKVEIK
- binding [1]: binds

B4: RDC-8 (antibody, V domains shown)
VH: QVQLQESGPGLVRPSQTLSLTCTVSGYSITSDHAWSWVRQPPGRGLEWIGYISYSGITTYNPSLKSRVTMLRDTSKNQFSLRLSSVTAADTAVYYCARLLARITAMDYWGQGSLVTVSS
VL: DIQMTQSPSSLSASVGDRVTITCRASQDISSYLNWYQQKPGKAPKLLIYYTSRLHSGVPSRFSGSGSGTDFTFTISSLQPEDIATYYCQQGNTLPYTFGQGTKVEIK
- binding [2]: binds

B5: RDC-7 (antibody, V domains shown)
VH: B4 VH with L99T
VL: B4 VL
- binding [2]: binds

Now from value to binder:

- binding [2]: binds
B2: RD-6 (antibody, V domains shown)
VH: B4 VH with I103A
VL: B4 VL

- binding [2]: binds
B3: RDC-4 (antibody, V domains shown)
VH: B4 VH with L99T, I103A
VL: B4 VL

From US20150284465A1
